Experimental findings from PMC11809512, “Looking for approved-medicines to be repositioned as anti-Trypanosoma cruzi agents. Identification of new chemotypes with good individual- or in combination-biological behaviours” (Memórias do Instituto Oswaldo Cruz, 2025) are described below.

Molecules are shown by their SMILES.

The subject of this experiment is epimastigotes of T. cruzi (Tulahuen 2 strain, DTU Tc VI). The experiment in a line: Screening / IC50 against T. cruzi epimastigotes (growth, absorbance 610 nm, 5 days). Format: cell-based, Trypanosoma cruzi. The note with it: 25 µM or 100 µg/mL; cut-off more than 65% inhibition. The procedure: Screening - Entities, dissolved in dimethylsulfoxide (DMSO, Sigma) before use and then diluted in a culture milieu, were firstly tested against epimastigotes of T. cruzi [Tulahuen 2 strain, discrete typing unit (DTU) Tc VI] as previously described.[14] ^, [15] […] The system was incubated at 28 °C for five days and to assess cell proliferation, cell density was monitored at 610 nm at time 0 (Ap0) and five days post incubation (Ap). All measures were normalised to the control population at day 0 (Ac0) and at day 5 (Ac5). Control parasites were incubated with 0.4% DMSO, corresponding to the highest DMSO concentration of the well. The percentage of parasite inhibition was calculated as: (Ap - Ap0)/(Ac5 - Ac0) × 100. This assay was independently performed three times. […] Secondly,[16] Vero (ATCC® CCL-81™) cells were infected with T. cruzi metacyclic trypomastigotes from 15 days old Dm28 clone (DTU Tc I) epimastigote cultures. […] Viability was analysed using resazurin, which is reduced to highly fluorescent resorufin. […] Fluorescence (excitation 530 nm / emission 590 nm) was measured in a Thermo Scientific Varioskan® Flash Multimode plate spectrofluorimeter instrument. […] Infected cells and amastigotes per cell were counted from randomly selected fields (400 cells per conditions). Two independent infections with trypomastigotes pre-treated with entities by two independent technicians were analysed. […]

For `Clc1ccc2c(c1)CCc1cccnc1C2=C1CCNCC1` [Deslor, Desloratadine], the “anti-epimastigote activity in the initial screening (in words)” value was “did not show anti-epimastigote activity”.
